Assay results: patent US10082498B2, “Methods for treating ADHD and bipolar disorder using a membrane potential ratio test” (PSYCHNOSTICS, LLC., priority 2013, dated 2018)
At least one structure is not confirmed: it was looked up by name or label, or the drawing left a doubt.

Key:
[1] = system: human patient with BD or ADHD; test: Clinical response of outpatient psychiatric patients to medication (clinical vignettes); assay type: in vivo
Procedure: Certain patients from the outpatient private psychiatric practice were retested after widely varying intervals as shown in the following Examples. Participation was completely voluntary and only allowed after the signing of a consent form. For the purpose of maintaining the privacy of the subject the lab work was performed confidentially (called blinding of the tester). Each patient was assigned an identification (ID) number and only the clinician had access to the key which correlated ID numbers with patient names.

[2] = system: Na^+K^+ ATPase; conditions: cited from earlier work
[3] = system: whole blood cells; test: Membrane potential ratio (MPR) test on blood cells of patients under drug treatment; assay type: in vivo, human
Procedure: The MPR™ test is used to diagnose BD and ADHD. Briefly, the MPR™ test involves measuring the membrane potential of the human cells in a test buffer and in a reference buffer and calculating the ratio of these membrane potentials.
Briefly, the membrane potentials of whole blood cells are measured using two different buffers in a plate reader. The mean MPR™ value is the ratio between the membrane potential of a patient's cells in the test buffer as the numerator and that in the reference buffer as the denominator determined by statistical analysis of multiple measurements, using the ANOVA and the multiple statistical regression analysis.
The membrane potential of a patient's cells may be ascertained by any conventional method, such as by examining the fluorescence intensity of a potential-sensitive lipophilic fluorescent dye. The membrane potential is directly proportional to the intensity of fluorescence according to the following equation: I=CV, wherein I is the fluorescence intensity of a lipophilic fluorescent dye, V is the voltage or membrane potential, and C is a constant that can vary depending on a number of factors such as, but not limited to, temperature, lamp intensity, number of cells, concentration of the fluorescent dye, incubation time, and lipid composition of cells used. The calibration and determination of the value for C can be a cumbersome and unreliable procedure. […]

[4] = system: leukocytes of bipolar patients; conditions: following the addition of lithium to hyperpolarized leukocytes of bipolar patients; cited from earlier work

## CN(C)CCCC1(c2ccc(F)cc2)OCc2cc(C#N)ccc21 (stereo not shown) [citalopram]
[1]; Example 4, person, combination: aripiperazole, citalopram, oxcarbazepine and alprazolam
  Clinical stabilization of Bipolar I Disorder: not fully stabilized

## [Li] [lithium]
[2]
  Effect on Na+K+ ATPase activity: augment
[1]; Example 2, person with BD
  Clinical response of BD to therapy: responding well
[1]; Example 4, addition of lithium 600 mg per day and Seroquel 100 mg at bedtime
  Mood stabilization: further stabilized clinically
[3]; Example 3, person with BD, combination: lithium, quetiapine and mirtazapine (B in FIG. 3)
  MPR result range: negative (normal) range
[3]; Example 4, after addition of lithium 600 mg per day and Seroquel 100 mg at bedtime (B in FIG. 4)
  MPR test range: ADHD range
[4]
  Effect on membrane potential: depolarization
